Assay results as given in PubChem BioAssay AID2549 (National Center for Advancing Translational Sciences (NCATS), 2010).
Among all 240,000 compounds or so, about 1,300 (0.54%) were called active. The shares of active, inactive and inconclusive entries below differ from those in the screen. The call rests on the fitted dose curve; in most records, active means well fitted inhibition curve with a large enough effect; inconclusive means small, poorly fitted or top-dose-only effect; inactive means flat fitted curve, though single readings scatter. Potencies beside an inconclusive call are fits to weak or partial responses and may not hold up.
Further: nearly all actives have a fitted effect of over 30% in size.
Potency means the concentration at half of the fitted maximal effect.
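Wherever activity, negative = inhibition is given: plate controls were vehicle for no effect and no enzyme for full effect.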

By UniProt entry, the sequences of proteins in these tests, tags left out. Where a name states a change or a piece, a line headed by the entry shows the natural chain unless it says otherwise.
UniProt P46063: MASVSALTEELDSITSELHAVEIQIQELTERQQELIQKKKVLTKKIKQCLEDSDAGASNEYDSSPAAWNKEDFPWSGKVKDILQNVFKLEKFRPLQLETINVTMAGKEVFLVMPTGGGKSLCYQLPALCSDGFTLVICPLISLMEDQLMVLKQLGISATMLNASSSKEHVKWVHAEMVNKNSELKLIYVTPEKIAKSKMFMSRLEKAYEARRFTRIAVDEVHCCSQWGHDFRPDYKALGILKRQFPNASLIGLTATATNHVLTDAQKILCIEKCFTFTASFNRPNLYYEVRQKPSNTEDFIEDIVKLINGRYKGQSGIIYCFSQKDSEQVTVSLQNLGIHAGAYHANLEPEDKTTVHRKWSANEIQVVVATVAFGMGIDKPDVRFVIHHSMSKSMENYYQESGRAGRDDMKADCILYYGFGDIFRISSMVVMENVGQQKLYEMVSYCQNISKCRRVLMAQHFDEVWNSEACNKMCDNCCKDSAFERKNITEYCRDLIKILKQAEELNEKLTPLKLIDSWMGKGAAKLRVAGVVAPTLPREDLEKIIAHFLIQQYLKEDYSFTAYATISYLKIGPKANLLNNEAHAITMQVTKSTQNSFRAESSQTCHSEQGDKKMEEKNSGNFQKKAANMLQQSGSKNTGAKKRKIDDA

The compounds below were run against ATP-dependent DNA helicase Q1 (Homo sapiens) (UniProt P46063) (assay: qHTS Assay for Inhibitors of RecQ-Like Dna Helicase 1 (RECQ1)). Details: RECQ1 DNA unwinding, red fluorescence kinetic read; activity, negative = inhibition: at 57.3 µM (top of the series); series mostly up to 57.3 µM.
Procedure, shortened: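 RECQ1T1 50 nM; forked duplex (20 bp + 30-nt ss tails) 200 nM, ATP 2 mM final; pH 8.0, 2 mM MgCl2, 2.5 ug/ml poly(dI-dC); 15 min compound preincubation; discontinuous kinetic read over 2 h at RT.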
With COc1ccc(-c2ccc(OC)c([C@H]3[C@H]4C=CC[C@@H](C)[C@@H]4C(=O)N3Cc3ccccc3)c2)cc1 the Potency was inconclusive: 0.158 µM [inhibitor, partial curve, poor fit].
O=P(O)(O)CP(=O)(O)O was tested, and the “activity, negative = inhibition” value was inactive: 7.08%.
In the case of O=C(C1=C[C@@H](c2csc3ccccc23)C[C@@H](OCc2ccc(CO)cc2)O1)N1CCN(Cc2ccccc2)CC1, the Potency is reported as inconclusive: 39.8 µM [inhibitor, single point].
In the case of N#Cc1c(-c2ccco2)cc(-c2cccnc2)nc1N, the Potency is reported as inconclusive: 31.6 µM [inhibitor, partial curve].
With CC(=O)c1cccc(N(C(=O)c2cnccn2)C(C(=O)NCc2ccccc2)c2ccco2)c1 (configuration not stated) the Potency was active: 39.8 µM.
NC(=O)CSc1nc2scc(-c3ccco3)c2c(=O)n1-c1ccccc1 was tested, and the Potency was active: 28.2 µM.
With COc1ccc2cc(C(C)c3nc4ccccc4c(=O)n3N)ccc2c1 (configuration not stated) the Potency was active: 28.2 µM.
For O=C(CN1CCN(S(=O)(=O)c2ccc(F)cc2)CC1)c1ccc(O)c(O)c1, the Potency was active: 39.8 µM.
For CCCCOCCCNC(=O)COc1ccccc1, the Potency was inconclusive: 3.98 µM [inhibitor, partial curve].
For CC1=NN(c2nc(-c3ccccc3)cs2)C(=O)C1, the Potency was inconclusive: 35.5 µM [inhibitor, single point].
For COc1ccc(OC)c(/C=N/c2oc(-c3ccco3)c(-c3ccco3)c2C#N)c1, the Potency was inconclusive: 39.8 µM [inhibitor, single point].
With O=C(c1cc(-c2ccccc2)on1)N1CCCc2ccccc21 the “activity, negative = inhibition” value was inactive: -11.6%.
For CC(C)(Oc1ccc(Cl)cc1)C(=O)NC1=NN(c2ccccc2)C(=O)C1, the Potency was inconclusive: 39.8 µM [inhibitor, single point].
For O=C(CNCc1ccccc1)Nc1ccc(Oc2ccccc2)cc1, the Potency was inconclusive: 7.94 µM [inhibitor, full curve, poor fit].
CCOc1ccc(OCc2ccc(C(=O)O)o2)cc1 was tested, and the “activity, negative = inhibition” value was inactive: -6.03%.
For COc1cccc(OCC(=O)Nc2ccccc2C(N)=O)c1, the Potency was inconclusive: 39.8 µM [inhibitor, single point].
For O=c1ccc2[n+]([O-])c3ccc(O)cc3oc-2c1, the Potency was active: 15.8 µM.
For O=C(Nc1cccc(S(=O)(=O)NC2=NCCCCC2)c1)c1cc(-c2ccco2)nc2ccccc12, the Potency was active: 20 µM.
For CNc1ccc([N+](=O)[O-])cc1, the Potency was active: 11.2 µM.
Cc1cccc(NC(=O)CSc2ncnc3nc[nH]c23)c1C was tested, and the Potency was inconclusive: 0.126 µM [inhibitor, full curve, poor fit].
For COc1ccccc1N1CCN(C(C)C(=O)Nc2ccc(S(=O)(=O)N3CCOCC3)cc2)CC1 (configuration not stated), the “activity, negative = inhibition” value was inactive: 0.905%.
With CS(=O)(=O)Nc1cccc(C2=NN(S(=O)(=O)c3ccc(F)cc3)C(c3cccs3)C2)c1 (configuration not stated) the Potency was inconclusive: 35.5 µM [inhibitor, single point].
With CCSc1nnc(-c2ccccc2N)c(=O)[nH]1 the Potency was inconclusive: 39.8 µM [inhibitor, single point].
With CC(C)=CCc1c(O)ccc2c1OC(c1ccc(O)c(O)c1)CC2=O (configuration not stated) the “activity, negative = inhibition” value was inactive: -21.7%.
For C=CCn1c(SCC(=O)c2ccc(O)c(O)c2)nnc1-c1cccnc1, the Potency was active: 8.91 µM.
For O=C(N/N=C/c1ccc(F)cc1)c1cc(-c2ccco2)nc2ccccc12, the Potency was active: 10 µM.
For O=C(Nc1ccncc1)C1CCN(S(=O)(=O)c2cccs2)CC1, the Potency was inconclusive: 7.08 µM [inhibitor, partial curve].
For CC1(C)Oc2ccc3ccc(=O)oc3c2-c2cnoc21, the “activity, negative = inhibition” value was inactive: 9.25%.
For O=C(NN1C(=O)/C(=C/C=C/c2ccco2)SC1=S)c1ccccc1O, the Potency was active: 2.51 µM.
In the case of Cc1cc(C)c(S(=O)(=O)/N=C2/C=C(SCC(=O)O)C(=O)c3ccccc32)cc1C, the activity, negative = inhibition is reported as inconclusive: -32.5% [inhibitor].
For CCN(c1ccc(N=Cc2c(O)n(Cc3ccc(OC)cc3)c(=O)c3ccccc23)cc1)C(C)C, the “activity, negative = inhibition” value was inactive: -19.7%.
In the case of Cc1ccc(NC(=O)CSc2nnc(-c3ccco3)c(-c3ccco3)n2)cc1, the Potency is reported as inconclusive: 25.1 µM [inhibitor, single point].
For CCCc1cc(-c2nc(-c3ccc(Br)cc3)cs2)ccn1, the Potency was inconclusive: 1.12 µM [inhibitor, full curve].
For COCCNC(=O)Cn1c(=O)n(CCCCCC(=O)NCc2ccc3c(c2)OCO3)c(=O)c2sccc21, the “activity, negative = inhibition” value was inactive: -10.7%.
CCOC(=O)Cc1csc(SCC(=O)Nc2sc3c(c2C(N)=O)CCC3)n1 was tested, and the Potency was inconclusive: 39.8 µM [inhibitor, single point].
With O=C(Nc1cccc(S(=O)(=O)N2CCOCC2)c1)[C@@H]1CCCN1S(=O)(=O)c1ccc(Cl)cc1 the “activity, negative = inhibition” value was inactive: -1.45%.
In the case of Cc1cccc(N2CSC3=C(C#N)C(c4ccc(C)o4)CC(=O)N3C2)c1 (configuration not stated), the Potency is reported as active: 12.6 µM.
For N=C1/C(=C\c2coc3ccccc3c2=O)C(=O)N=C2SC(c3ccncc3)=NN12, the Potency was inconclusive: 39.8 µM [inhibitor, single point].
For O=C1/C(=C/C=C/c2ccco2)SC(=S)N1NS(=O)(=O)c1ccccc1, the Potency was active: 3.55 µM.
With O=C(O)Cc1ccc(N=Nc2c(O)c(C(=O)O)cc3ccccc23)cc1 the Potency was inconclusive: 35.5 µM [inhibitor, single point].
Brc1ccc(-c2noc(CCc3ccccc3)n2)o1 was tested, and the Potency was inconclusive: 8.91 µM [inhibitor, single point].
In the case of Oc1c(CN2CCCCC2)cc(Br)c2cccnc12, the “activity, negative = inhibition” value is reported as inactive: 14.5%.
For COc1ccc(C(=O)C2C3C4COC(O4)C(=O)C3C3C=Cc4ccccc4N32)c(OC)c1 (configuration not stated), the Potency was inconclusive: 11.2 µM [inhibitor, partial curve, poor fit].
C#Cc1ccc([C@@H]2C=C(C(=O)Nc3ccccc3)O[C@H](OCC)[C@H]2CCCO)cc1 was tested, and the Potency was inconclusive: 39.8 µM [inhibitor, single point].
With CCCCOC(=O)c1ccc(NC(c2ccc(C)cc2)P(=O)(OC)OC)cc1 (configuration not stated) the Potency was active: 17.8 µM.
In the case of COC(=O)c1ccc(NC(=O)CCS(=O)(=O)c2ccc(Br)cc2)cc1, the Potency is reported as inconclusive: 0.631 µM [inhibitor, full curve].
In the case of CC(=O)N=c1sc2nc3ccccc3nc2n1N(C(C)=O)C(C)=O, the “outcome” value is reported as “inactive”.
